Source: PubChem BioAssay AID1259314 (Drosophila RNAi Screening Center, 2017)

Assay: 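Transmembrane protein genes affecting ATP after manganese overload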 (primary screen)
Cells: Drosophila S2R+ cells
Reagent: long dsRNA against Drosophila genes
Duration: 5 days (4 days knock-down, then 1 day metal exposure)
Conditions: manganese chloride added to 15 mM for 24 hours
Detection: 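Cellular ATP measured by luciferase light, scaled to the plate mean, averaged across replicates and z-scored over plates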
Reading the numbers: mean ATP z-score: higher = more ATP than the plate average, more viable cells under manganese
Hit rule: 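a mean ATP z-score past 1.5 in either direction is called active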
Calls: active = strong ATP change, up or down; inactive = no strong ATP change
This is a random part of about 3,100 deposited reagents. 289 of all reagents (9.3%) were called active. 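Active includes both higher and lower ATP than plate average; check the z-score sign for direction.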 The numbers tell different reagents against one gene apart. A plus sign joins genes that one reagent is predicted to hit. Reagent sequences are not shown. Not given: the amount of reagent.

mean ATP z-score, by predicted target and reagent
CG14731: #1 -0.128 inactive; #2 1.45 inactive
anne (anne boleyn): #1 -1.03 inactive; #2 -1 inactive
Sys1 + Dhod: #1 0.533 inactive
kek1 (kekkon 1): #1 -0.319 inactive; #2 0.189 inactive; #3 0.386 inactive
Tom7 (Translocase of outer membrane 7): #1 -0.238 inactive; #2 -0.882 inactive
PGAP2 (Post-GPI attachment to proteins 2): #1 0.186 inactive; #2 -0.463 inactive
nemy (no extended memory): #1 0.132 inactive; #2 -0.685 inactive
CG2076: #1 -1.74 active; #2 -1.52 active
Ret (Ret oncogene): #1 -0.0127 inactive; #2 0.103 inactive; #3 0.25 inactive

Reformatted: results already given.
{"predicted target":"kek1 (kekkon 1)","dsRNA no.":2,"mean ATP z-score":0.189,"call":"inactive"}
{"predicted target":"kek1 (kekkon 1)","dsRNA no.":3,"mean ATP z-score":0.386,"call":"inactive"}
{"predicted target":"Tom7 (Translocase of outer membrane 7)","dsRNA no.":1,"mean ATP z-score":-0.238,"call":"inactive"}
{"predicted target":"Tom7 (Translocase of outer membrane 7)","dsRNA no.":2,"mean ATP z-score":-0.882,"call":"inactive"}

More reagents follow.
mean ATP z-score, by predicted target and reagent
fend (forked end): #1 0.0707 inactive; #2 -0.252 inactive
CG6356: #1 -0.194 inactive; #2 -0.34 inactive
Cngl (Cyclic nucleotide-gated ion channel-like): #1 0.861 inactive; #2 -0.881 inactive
Oatp33Eb (Organic anion transporting polypeptide 33Eb): #1 -0.197 inactive; #2 -0.166 inactive
CG31717: #1 0.0952 inactive
Sdc (Syndecan): #1 -0.835 inactive
Tsp42En (Tetraspanin 42En): #1 3.15 active
mri (mrityu): #1 -0.907 inactive; #2 0.208 inactive
Eaat1 (Excitatory amino acid transporter 1): #1 0.716 inactive; #2 -0.989 inactive
cac (cacophony): #1 -0.13 inactive; #2 -0.0529 inactive
PGRP-LD + Pmi: #1 1.17 inactive
CG31693: #1 0.146 inactive; #2 0.061 inactive
rut (rutabaga): #1 -0.159 inactive
side-VIII (sidestep VIII): #1 -1.17 inactive; #2 0.0267 inactive
Mdr49 (Multi drug resistance 49): #1 -0.791 inactive; #2 0.878 inactive
prt (portabella): #1 -0.685 inactive; #2 -0.641 inactive
